PubChem BioAssay AID504764 – Drosophila RNAi Screening Center – 2011
Purpose: 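Genome-wide screen for regulators of Notch-driven gene expression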 (primary screen). Cell system: Drosophila Kc167 cells. Knock-down reagent: long dsRNA against Drosophila genes. Time to read-out: about 5 days (4 days dsRNA, then 24 h after transfection). Conditions: transfection of constitutively active membrane-tethered Notch lacking the extracellular domain, read 24 h later. Detection: 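Light from a Notch-responsive E(spl)m3 luciferase reporter under active Notch, with control-promoter and no-Notch reporter wells to normalise; raw counts from paired wells a and b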. Reading the numbers: induced reporter light, run 1, well a and induced reporter light, run 1, well b: higher = more light from the Notch target reporter with active Notch; control promoter light, run 1, well a and control promoter light, run 1, well b: higher = more light from the viral control promoter (cell number, transfection, viability); uninduced reporter light, run 1, well a: higher = more light from the Notch target reporter without active Notch. Call rule: 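Hit if the duplicate-averaged log2 ratio of induced to control-promoter light gives a plate-wise z beyond ±2, or induced to uninduced beyond ±1.8; weak-control or discordant-duplicate wells dropped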. Calls: active = modifier hit (raised or lowered Notch signal); inactive = not a hit.
The screen tested about 22,000 reagents; below is a random part of those that have a named target and a result. Over the whole deposit, 403 (1.9%) are marked active. 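Unnormalised raw counts per well; ratio z-scores behind the hit calls and whether each hit raises or lowers signal are not deposited.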 Names joined by + are all predicted targets of the reagent. No sequences are given here. Not given: the amount of reagent.

Target gene	PubChem SID	induced reporter light, run 1, well a	induced reporter light, run 1, well b	control promoter light, run 1, well a	control promoter light, run 1, well b	uninduced reporter light, run 1, well a	outcome
CG8630	SID104196233	1.90e5	2.27e5	2.26e5	2.15e5	16085	inactive
Slik (Sterile20-like kinase)	SID104184263	1.20e5	1.56e5	1.02e5	1.29e5	8780	inactive
CG17490	SID104183586	85975	55510	68140	66540	7790	inactive
CG17490	SID104183589	48610	48375	38345	44565	1828	inactive
CG10343	SID104181833	69355	47135	1.15e5	94265	5280	inactive
CG31272	SID104195850	30370	22550	29785	27775	1505	inactive
Mrp4 (Multidrug resistance protein 4)	SID104194723	69245	65850	84340	57120	4928	inactive
CG41520	SID104200894	88665	79640	1.11e5	98020	6300	inactive
CG41520	SID104200895	92035	90505	1.24e5	1.32e5	10760	inactive
Cpr64Ac (Cuticular protein 64Ac)	SID104188254	1.32e5	1.57e5	1.41e5	1.96e5	9132	inactive
CG7394	SID104190627	98725	80650	1.32e5	1.12e5	5675	inactive
plh (pasang lhamu)	SID104192086	1.65e5	1.24e5	1.14e5	1.18e5	13910	inactive
CG6592	SID104190461	1.07e5	92030	1.18e5	89630	6150	inactive
CG11437	SID104191451	95155	98620	1.65e5	1.25e5	11270	inactive
obst-H (obstructor-H)	SID104190727	2.41e5	1.96e5	2.37e5	2.33e5	9682	inactive
obst-H (obstructor-H)	SID104190732	2.20e5	1.38e5	20282	4610	21765	inactive
BomT2 (Bomanin Tailed 2)	SID104186423	1.01e5	1.00e5	1.21e5	89705	7110	inactive
CG32733 (retired record) + CG32797	SID104197497	73300	78260	99095	1.19e5	7385	inactive
CG17776	SID104197928	1.12e5	1.14e5	1.78e5	1.72e5	7538	inactive
CG9967	SID104180534	2.54e5	2.44e5	2.19e5	2.10e5	21340	inactive
Orc1 (Origin recognition complex subunit 1)	SID104187288	1.80e5	1.76e5	2.30e5	1.98e5	10830	inactive
lov (jim lovell)	SID104184071	2.37e5	2.36e5	1.49e5	2.24e5	15300	active
lov (jim lovell)	SID104184457	2.09e5	1.82e5	1.83e5	1.57e5	13790	inactive
Nup62 (Nucleoporin 62kD)	SID104186762	68695	73045	1.00e5	1.02e5	4982	inactive
SmydA-4 (SET and MYND domain containing, arthropod-specific, member 4)	SID104199182	1.41e5	1.30e5	2.68e5	2.15e5	9600	inactive
Rtnl1 (Reticulon-like1)	SID104180643	80050	92535	1.41e5	1.27e5	8660	inactive
Rtnl1 (Reticulon-like1)	SID104182476	1.46e5	1.52e5	1.83e5	1.68e5	16290	inactive
Rtnl1 (Reticulon-like1)	SID104182914	1.70e5	1.70e5	1.63e5	1.89e5	18600	inactive
tapas	SID104185742	1.19e5	99395	2.04e5	2.20e5	10300	inactive

Reagents listed above with an active call, once more:
Target gene	PubChem SID	induced reporter light, run 1, well a	induced reporter light, run 1, well b	control promoter light, run 1, well a	control promoter light, run 1, well b	uninduced reporter light, run 1, well a	outcome
lov (jim lovell)	SID104184071	2.37e5	2.36e5	1.49e5	2.24e5	15300	active

Additional records follow.
Target gene	PubChem SID	induced reporter light, run 1, well a	induced reporter light, run 1, well b	control promoter light, run 1, well a	control promoter light, run 1, well b	uninduced reporter light, run 1, well a	outcome
Tcs5 (Threonyl-carbamoyl synthesis 5)	SID104189566	2.19e5	2.06e5	3.20e5	2.67e5	11145	inactive
yellow-g2	SID104188130	1.23e5	91755	1.51e5	1.47e5	6125	inactive
cpb (capping protein beta)	SID104180601	1.28e5	1.39e5	1.76e5	1.75e5	11770	inactive
CG13314	SID104189777	1.65e5	1.72e5	2.51e5	1.99e5	9340	inactive
Lon (Lon protease)	SID104190841	1.24e5	1.94e5	93885	1.02e5	9925	inactive
lncRNA:sphinx (long non-coding RNA:sphinx)	SID104196991	63760	56475	84930	1.03e5	3855	inactive
CG10621	SID104181870	83840	47635	47575	60505	3040	inactive
Arpc5 (Actin-related protein 2/3 complex, subunit 5)	SID104180522	1.08e5	87700	94970	55135	7420	inactive
CG8677 + CG31626	SID104181630	1.09e5	1.14e5	87705	1.17e5	9375	inactive
CG5402	SID104195584	1.28e5	75405	1.59e5	1.08e5	11855	inactive
NPFR (Neuropeptide F receptor)	SID104191965	1.22e5	1.24e5	97515	91420	9850	inactive
CG8586	SID104187010	1.93e5	2.18e5	1.84e5	2.00e5	13045	inactive
Hacl (2-hydroxyacyl-CoA lyase)	SID104185853	91990	94315	1.84e5	1.88e5	8510	inactive
wmd (wing morphogenesis defect)	SID104184228	1.45e5	1.36e5	1.03e5	1.33e5	13830	inactive
SA1 (Stromalin 1)	SID104183216	78525	63620	70715	77610	8915	inactive
Syx7 (Syntaxin 7)	SID104191555	1.14e5	1.83e5	1.07e5	1.33e5	12015	inactive
Pde6 (Phosphodiesterase 6)	SID104196193	1.28e5	1.03e5	1.21e5	1.09e5	9755	inactive
Pde6 (Phosphodiesterase 6)	SID104196194	2.53e5	2.26e5	1.83e5	1.90e5	16140	inactive
Pde6 (Phosphodiesterase 6)	SID104196195	2.09e5	2.46e5	2.17e5	2.19e5	17085	inactive
path (pathetic)	SID104190153	1.84e5	1.21e5	1.86e5	1.67e5	8950	inactive
Him (Holes in muscle)	SID104199430	80435	73720	1.16e5	76960	11645	inactive
